90 compounds from the supplement of paper PMC11150407 can be followed below.

Molecules are shown by their SMILES. Where a name gives a salt, the structure may show the parent alone. About 180 (8.6%) of roughly 2,100 compounds showed an effect of 50% or more. The list shows a part of the results.

The subject of this experiment is MOLM1 and UCSD/AML1 (averaged). Put plainly: cell viability relative to DMSO control (POC); higher = less growth inhibition. To be noted: 1 µM; 72 h. As for the experimental part: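 Primary viability screen in the 3q26 EVI1-high AML cell lines MOLM1 and UCSD/AML1 (1.5e3 cells/well, 384-well), compounds at 1 uM for 72 h. ATP CellTiter-Glo read-out given as percent of viable cells over DMSO control (POC), averaged over duplicates. DMSO was the negative control and 5 uM etoposide the positive control. This mapping covers the MicroSource Spectrum and Selleck anticancer libraries (drug names).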
For `CC(=O)O[C@@H]1CC(=O)[C@@]2(C)C(CC(=O)[C@]3(C)C2CC[C@@]2(C)[C@H](c4ccoc4)OC(=O)C4OC423)C1(C)C` (stereo not given in full), the cell viability was found to be 100%. The same measure for `CCOC(=O)c1c(C)cc(OC)cc1O`: 95.3%.

As for `COc1ccc2c3n(c(=NC(=O)c4cccnc4)nc2c1OC)CCN3`, the cell viability turned out to be 64.3%. To `CNC(=O)c1ccc(N2C(=S)N(c3ccc(C#N)c(C(F)(F)F)c3)C(=O)C2(C)C)cc1F` [MDV3100 (Enzalutamide)] belongs 102%; to `CCCCC1C(=O)N(c2ccccc2)N(c2ccc(O)cc2)C1=O` (stereo not given), 97.9%. For the compound `COC(=O)C[C@H]1C2(C)CC34OC5(C)O[C@@]6([C@H](OC(C)=O)C(OC(C)=O)[C@]7(C)C(/C(=C(/O)C(C)C)C(=O)O[C@H]7c7ccoc7)[C@@]6(O5)[C@H](OC(C)=O)[C@@]3(O)C2OC(=O)C(C)C)[C@]14C` (stereo not given in full), the cell viability is 102%. As to `O=C(O)c1cc(=O)c(O)c2c(O)c(O)c(O)cc2c1`, the cell viability came out at 115%.

On to `CC(=O)Nc1ccc(OC(=O)c2ccccc2O)cc1`, for which the cell viability is 97.8%. To `COc1cc2nc(N3CCN(C(=O)C4COc5ccccc5O4)CC3)nc(N)c2cc1OC` (stereo not given) belongs 51%; to `O=C(O)C1=C(CSc2nnnn2CS(=O)(=O)O)CS[C@@H]2[C@H](NC(=O)[C@H](O)c3ccccc3)C(=O)N12`, 105%.

For the compound `CC(C)CC(NC(=O)[C@H](C)N)C(=O)O` (mixture of isomers), the cell viability is 105%.

On to `NC[C@H](O)c1ccc(O)c(O)c1`, for which the cell viability was determined as 97.4%. As for `CCN(CC)CCNC(=O)c1ccc(N)cc1`, the cell viability turned out to be 105%.

`O[C@H]1[C@H](O)[C@@H](O)C2OC[C@H]1O2`: the cell viability was 110%. For `CCCCCCOc1ccccc1C(N)=O`, the cell viability was 97.3%.

On to `OCCn1cc(-c2ccc3c(c2)CC/C3=N\O)c(-c2ccncc2)n1`, for which the cell viability stood at 89%. Turning to `C[C@@H]1CCC[C@H](C)N1NC(=O)c1ccc(Cl)c(S(N)(=O)=O)c1`, the cell viability came out at 79.6%. For the compound `CCOC(=O)C(Cc1ccc(O)cc1)NC(C)=O` (stereo not given), the cell viability stood at 105%. To `CN[C@H]1CC[C@@H](c2ccc(Cl)c(Cl)c2)c2ccccc21` belongs 75.5%; to `Nc1ccc(S(=O)(=O)Nc2nccs2)cc1`, 103%; to `COC(=O)C(O)c1ccccc1` (stereo not given), 106%. The same measure for `Cc1ccc(-c2cc(C(F)(F)F)nn2-c2ccc(S(N)(=O)=O)cc2)cc1` [Celecoxib]: 58.1%; for `Cc1ccc(-c2cc(C(F)(F)F)nn2-c2ccc(S(N)(=O)=O)cc2)cc1`: 95.5%; for `CC(C)[N+]1(C)[C@@H]2CC[C@H]1C[C@@H](OC(=O)C(CO)c1ccccc1)C2` (stereo not given in full): 120%. The same measure for `COc1cc(CNC(=O)CCCC/C=C/C(C)C)ccc1O`: 98%; for `COC(=O)c1c(OC)cc2c(c1C)Oc1c(Cl)c(O)c(Cl)c(C)c1C(=O)O2`: 107%; for `C[C@]12CC[C@@H]3c4ccc(O)cc4C[C@@H](CCCCCCCCC[S+]([O-])CCCC(F)(F)C(F)(F)F)[C@H]3[C@@H]1CC[C@@H]2O` (stereo not given in full) [Fulvestrant (Faslodex)]: 102%. For `CO/N=C(\C(=O)N[C@@H]1C(=O)N2C(C(=O)O)=C(COC(C)=O)CS[C@H]12)c1csc(N)n1`, the cell viability came to 100%.

For `COC(=O)[C@H](Cc1ccccc1)NC(=O)[C@@H](N)CC(=O)O`, the cell viability is 53.3%. Consider `COc1cc(O)c2c(=O)cc(C)oc2c1CC=C(C)C`, for which the cell viability came out at 87.8%. `OC[C@@H](O)[C@@H](O[C@@H]1O[C@H](CO)[C@@H](O)[C@H](O)[C@H]1O)[C@H](O)[C@@H](O)CO`: the cell viability stood at 92.2%. To `C[N+](C)(C)CC(O)CC(=O)[O-]` (stereo not given) belongs 99.5%; to `CC(=O)O[C@]1(C)CC[C@@]23C[C@H]1C(C)(C)[C@@H]2CC[C@H]3C`, 107%.

Regarding `CC(=O)Nc1c(I)cc(I)c(C(=O)O)c1I`, the cell viability came to 99.3%. The same measure for `Cc1cc2cc3c(C)cc(=O)oc3c(C)c2o1`: 94.2%; for `CC(=O)Nc1nnc(S(N)(=O)=O)s1`: 102%.

On to `COC1=CC(=O)C(O)=C/C1=C\C=C\c1ccccc1`, for which the cell viability is 95%. To `Cc1cc(Nc2cc(N3CCN(C)CC3)nc(Sc3ccc(NC(=O)C4CC4)cc3)n2)n[nH]1` [VX-680 (MK-0457, Tozasertib)] belongs 22%; to `CC[C@@]1(O)C(=O)OCc2c1cc1n(c2=O)Cc2cc3c(CN(C)C)c(O)ccc3nc2-1` [Topotecan HCl], 2.12%; to `Nc1nnc(-c2cccc(Cl)c2Cl)c(N)n1`, 92.1%. To `O=C(O)/C=C(\CC(=O)O)C(=O)O` belongs 103%; to `Nc1nc(=O)[nH]cc1F`, 94.1%; to `Cc1c(C)c2c(c(C)c1O)CCC(C)(CCCC(C)CCCC(C)CCCC(C)C)O2` (stereo not drawn) [alpha-TOCHOPHEROL], 103%.

Turning to `CC(=O)O[C@]1(C(C)=O)CC[C@H]2[C@@H]3C=C(C)C4=CC(=O)CC[C@]4(C)[C@H]3CC[C@@]21C` [Megestrol Acetate], the cell viability was determined as 92.5%. The same measure for `CC(=O)O[C@]1(C(C)=O)CC[C@H]2[C@@H]3C=C(C)C4=CC(=O)CC[C@]4(C)[C@H]3CC[C@@]21C`: 91.8%; for `NC[C@H]1O[C@H](O[C@H]2[C@H](O)[C@@H](O[C@H]3O[C@H](CO)[C@@H](O)[C@H](N)[C@H]3O)[C@H](N)C[C@@H]2N)[C@H](N)[C@@H](O)[C@@H]1O`: 110%; for `OCC(O)C(O)C(O)CO` (stereo not given): 105%. With `CC1CCC2(OC1)OC1CC3C4CCC5C[C@@H](O)CCC5(C)C4=CCC3(C)C1[C@@H]2C` (stereo partly drawn) [3beta-HYDROXYISOALLOSPIROST-9(11)-ENE], the cell viability turned out to be 91.8%. Take `Nc1ccccc1NC(=O)c1ccc(CNc2nccc(-c3cccnc3)n2)cc1` [Mocetinostat (MGCD0103)]: the cell viability was determined as 4.85%.

`CN(C)CC(=O)OC[C@@H](O)[C@@H](O)[C@H](O)[C@@H](O)C(=O)O`: the cell viability worked out at 108%. `CC(C)(C)NCC(O)COc1cccc2c1CC(O)C(O)C2` (stereo not given): the cell viability turned out to be 104%. To `Cc1cc(O)cc(O)c1C(=O)O` belongs 115%; to `CC1=C(C(=O)O)N2C(=O)[C@@H](NC(=O)[C@H](N)c3ccccc3)[C@H]2SC1`, 118%; to `CC[C@H](C)C(=O)O[C@H]1C[C@H](O)C=C2C=C[C@H](C)[C@H](CC[C@@H](O)C[C@@H](O)CC(=O)O)[C@H]21`, 95%. The same measure for `O=C1C(O)=C(O)C(=O)C(O)=C1O`: 96.4%; for `COc1ccc2c(c1)c(CC(=O)OCC(=O)O)c(C)n2C(=O)c1ccc(Cl)cc1`: 112%. For the compound `Cc1c2oc3c(C)ccc(C(=O)N[C@@H]4C(=O)N[C@H](C(C)C)C(=O)N5CCC[C@H]5C(=O)N(C)CC(=O)N(C)[C@@H](C(C)C)C(=O)O[C@@H]4C)c3nc-2c(C(=O)N[C@@H]2C(=O)N[C@H](C(C)C)C(=O)N3CCC[C@H]3C(=O)N(C)CC(=O)N(C)[C@@H](C(C)C)C(=O)O[C@@H]2C)c(N)c1=O`, the cell viability amounted to 1.96%. To `COc1ccc2cc3[n+](cc2c1OC)CCc1cc2c(cc1-3)OCO2` belongs 89.3%; to `CC(C)Cn1c(=O)n(C)c(=O)c2nc[nH]c21`, 102%. Consider `COC(=O)C[C@H]1C(C)(C)C(=O)[C@@H]2CC3C4=CC(=O)O[C@@H](c5ccoc5)[C@]4(C)CC[C@@H]3[C@@]1(C)C2=O` (stereo not given in full), for which the cell viability is 98.6%. To `CC(C)=CC1C(C(=O)O)C1(C)C` (stereo not given) belongs 85.6%; to `COc1cc2ncnc(Nc3ccc(F)c(Cl)c3)c2cc1NC(=O)/C=C/CN1CCCCC1`, 50.9%.

As for `O=C(O)/C=C/C=C/c1ccccc1`, the cell viability was 121%. For the compound `CCCCC1C(=O)N(c2ccccc2)N(c2ccccc2)C1=O`, the cell viability is 103%.

With `COCCCOc1cc(C[C@@H](C[C@H](N)[C@@H](O)C[C@H](C(=O)NCC(C)(C)C(N)=O)C(C)C)C(C)C)ccc1OC`, the cell viability worked out at 84%.

For `CCCCOC(=O)c1ccc(O)cc1`, the cell viability came to 84%. To `C#C[C@]1(OC(C)=O)CC[C@H]2[C@@H]3CCC4=CC(=O)CC[C@@H]4[C@H]3CC[C@@]21C` belongs 93.9%; to `CCCc1nc2c(C)cc(-c3nc4ccccc4n3C)cc2n1Cc1ccc(-c2ccccc2C(=O)O)cc1`, 89.7%; to `Cc1ccc(C(=O)N(CCCN)[C@@H](c2nc3cc(Cl)ccc3c(=O)n2Cc2ccccc2)C(C)C)cc1`, 15.3%.

On to `COc1ccc(-c2cc(=O)c3c(O)c(OC)c(OC)c(OC)c3o2)cc1OC`, for which the cell viability was 80.2%. The same measure for `N=C(N)N1CCc2ccccc2C1`: 97.4%; for `CC(=O)/N=c1/sc(S(N)(=O)=O)nn1C`: 112%. The same measure for `CC1=CC(=O)c2ccccc2C1=O`: 98.7%; for `C[C@@H](Oc1cc(-c2cnn(C3CCNCC3)c2)cnc1N)c1c(Cl)ccc(F)c1Cl`: 21.4%; for `CC(C)=CCC/C(C)=C\CO`: 117%. To `COCCCOc1ccnc(C[S+]([O-])c2nc3ccccc3[nH]2)c1C` (stereo not given) belongs 84.9%. Regarding `Cc1ccc(C(=O)C(C)CN2CCCCC2)cc1` (stereo not given), the cell viability came out at 101%. For the compound `CNCC[C@@H](Oc1ccccc1C)c1ccccc1`, the cell viability is 105%.

`O=C(CCCCC(=O)Nc1c(I)cc(I)c(C(=O)O)c1I)Nc1c(I)cc(I)c(C(=O)O)c1I`: the cell viability amounted to 95.1%. As for `N[C@@H](CC(=O)N1CCn2c(nnc2C(F)(F)F)C1)Cc1cc(F)c(F)cc1F`, the cell viability turned out to be 94.7%.

As to `COc1cc2c(cc1OC)Cc1cc(OC)c(OC)cc1Cc1cc(OC)c(OC)cc1C2`, the cell viability turned out to be 113%.

As for `C[C@@H]1O[C@@H](O[C@H]2[C@H](Oc3cc(O)c4c(c3)O[C@H](c3ccc(O)cc3)CC4=O)O[C@H](CO)[C@@H](O)[C@@H]2O)[C@H](O)[C@H](O)[C@H]1O`, the cell viability was found to be 97.8%.

In the case of `CC(=O)OCC(=O)[C@@]12OC3(CCCC3)O[C@@H]1C[C@H]1[C@@H]3CCC4=CC(=O)C=C[C@]4(C)[C@@]3(F)[C@@H](O)C[C@@]12C`, the cell viability was determined as 75.1%. As to `CCCC(=O)Nc1ccc(OCC(O)CNC(C)C)c(C(C)=O)c1` (stereo not given), the cell viability is 98.8%. With `C[C@@H]1O[C@@H](OC[C@H]2O[C@@H](Oc3c(-c4ccc(O)c(O)c4)oc4cc(O)cc(O)c4c3=O)[C@H](O)[C@@H](O)[C@@H]2O)[C@H](O)[C@H](O)[C@H]1O` [RUTOSIDE  (rutin)], the cell viability was determined as 99%. Take `CN1[C@@H]2CC[C@H]1C[C@@H](OC(c1ccccc1)c1ccccc1)C2`: the cell viability stood at 101%. As for `CC(=O)Nc1ccc(OCC(O)CNC(C)C)cc1` (stereo not given), the cell viability was 99%. The same measure for `O=C(Nc1ccccc1)OCC(CN1CCCCC1)OC(=O)Nc1ccccc1` (stereo not given): 90.9%; for `COc1c(O)cc(O)cc1O`: 98.8%. To `NC(=O)Nc1sc(-c2ccc(F)cc2)cc1C(N)=O` belongs 42.3%.
